# Reference: PubChem BioAssay AID652054 (National Center for Advancing Translational Sciences (NCATS), 2013)
# Amino acid sequences for entries named in this document (tags omitted).
# UniProt P35462, whole entry, looked up: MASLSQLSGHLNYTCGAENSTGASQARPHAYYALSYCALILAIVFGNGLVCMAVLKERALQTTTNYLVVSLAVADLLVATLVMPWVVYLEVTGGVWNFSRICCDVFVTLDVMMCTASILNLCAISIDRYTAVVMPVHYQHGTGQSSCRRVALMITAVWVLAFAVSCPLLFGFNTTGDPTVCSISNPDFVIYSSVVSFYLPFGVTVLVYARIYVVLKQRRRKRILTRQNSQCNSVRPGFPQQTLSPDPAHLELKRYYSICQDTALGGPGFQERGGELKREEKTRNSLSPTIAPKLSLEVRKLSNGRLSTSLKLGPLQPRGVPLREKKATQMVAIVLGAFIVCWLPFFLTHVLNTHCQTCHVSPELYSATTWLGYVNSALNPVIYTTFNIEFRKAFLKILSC
# Out of some 360,000 compounds screened, about 9,100 (2.5%) were called active. The inconclusive results got no clear call from the source; some entries with a clear call stand among them for comparison. Cut-off read from the data, not from the text of the source: active = max response below about -50%; inconclusive = no clear call, values can overlap the other calls; inactive = above that.
# Biological target: D(3) dopamine receptor (Homo sapiens) (UniProt P35462)
# Assay: qHTS of D3 Dopamine Receptor Antagonist: qHTS
# Settings: D3R cells, DiscoveRx beta-arrestin luminescence, antagonist mode; active compounds read low
# How it was run: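 Cells plated overnight at 1500 cells/well, then exposed to library compounds with dopamine controls for 90 minutes at 37 degrees C. DiscoveRx reagent added for 30–60 minutes at room temperature; luminescence read, quantitative HTS format.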
# % is set by controls: 0 for no effect and ±100 for the full control effect.
row,Structure (SMILES),"max response, negative = inhibition"
1,O=C(NCCN1CCN(C(=O)c2ccc(Br)cc2)CC1)c1ccc(Br)cc1,active: -98.1%
2,O=C(NC(c1ccc(F)cc1)c1ccc2ccccc2n1)C1CCN(CCOc2ccc(Cl)cc2)CC1 (stereo not given),active: -118%
3,CC(=O)Oc1ccc2c(=O)c(/C=N/c3cc(=O)[nH]c(=S)[nH]3)coc2c1,inconclusive: -31.8%
4,O=C(COC(=O)c1cc(S(=O)(=O)N2CCCC2)ccc1O)Nc1ccccc1Br,inconclusive: -33.7%
5,COc1ccc(CN2CCN(S(=O)(=O)c3ccc(F)cc3)CC2)cc1OC,inconclusive: -33.6%
6,CCn1c(=O)c2cc(C(=O)N(C)c3ccc(OC)cc3OC)sc2c2ccccc21,inactive: 2.01%
7,CC(=O)c1sc2nsc(SCCN3CCCCC3)c2c1N,inactive: 11.6%
8,O=C(NCc1cccnc1)c1cc(C2CCCCN2S(=O)(=O)c2cccs2)on1 (stereo not given),inconclusive: -33.8%
9,CCOC(=O)[C@]12CCCC=C1N(Cc1ccc3c(c1)OCO3)C(=O)[C@H](CC(=O)NCc1cccs1)C2,inactive: -6.39%
10,NC(=O)C1CCN(C(c2ccccc2F)c2nnnn2Cc2ccco2)CC1 (stereo not given),inconclusive: -38.4%
11,Cc1ccc(C(C)C)cc1S(=O)(=O)NCc1ccccn1,inconclusive: -38.4%
12,Nc1cc(=O)nc(SCC(=O)Nc2ccccc2)n1-c1ccccc1,inconclusive: -30.8%
13,Cc1ccc(N2C(N)=C(C#N)C(c3ccsc3)C3=C2CC(C)(C)CC3=O)cc1 (stereo not given),inconclusive: -48.3%
14,O=C(/C=C/c1ccccc1)NCCS(=O)(=O)N1CCN(c2ccccc2F)CC1,inconclusive: -36.8%
15,CCOC(=O)c1c(C)oc2cc(Br)c(OC(C)C(=O)OCC)cc12 (stereo not given),inactive: 21.7%
16,O=C1CC(c2ccccc2)CC(O)=C1C=NCc1ccccc1Cl (stereo not given),active: -92.3%
17,Cc1c(CN(C)CCc2ccccc2)c(=O)n(-c2ccccc2)n1C,active: -76.8%
18,O=C(O)c1ccc(NC(=O)C2C3CCC(O3)C2C(=O)O)cc1 (stereo not given),inactive: 11%
19,COc1cc2oc(=O)cc(CN3CCCCCCC3)c2cc1Cl,inconclusive: -30.6%
20,O=C(Nc1ccc(Cc2ccncc2)cc1)c1cc([N+](=O)[O-])ccc1N1CCOCC1,inactive: -2.06%
21,COc1ccc(CNC(=O)CSc2ncn[nH]2)cc1OC,inactive: -3.68%
22,Cc1cc(C)c(C#N)c(SCC(=O)c2ccc(Cl)cc2Cl)n1,inconclusive: -47.4%

row,Structure (SMILES),"max response, negative = inhibition"
1,Nc1ccc(S(=O)(=O)Nc2nccc(/C=C/c3ccccc3F)n2)cc1,inconclusive: -30.2%
2,COc1ccccc1N1CCN(Cc2cc3c(cc2[N+](=O)[O-])OCO3)CC1,inconclusive: -48.2%
3,CC1(C(=O)NS(=O)(=O)c2ccc(F)cc2F)CCN1C(=O)Cc1cc(F)ccc1F (stereo not given),inconclusive: -31.8%
4,COc1cccc2[nH]c3c(N4CCCCC4)ncnc3c12,inconclusive: -36.8%
5,Cc1ccc(NC2=C(C(=O)c3ccccc3)N(C)S(=O)(=O)c3ccccc32)cc1,active: -59.9%
6,Cc1ccc(C(=O)NCCC2=CCCCC2)cc1S(=O)(=O)N1CCCCC1,inactive: -3.83%
8,COc1cc(/C=C/C(=O)N2CCC=CC2=O)cc(OC)c1OC,inconclusive: -32.9%
9,Cc1ccccc1C(=O)Nc1ccccc1Sc1ccccc1,inconclusive: -33.8%
10,Cc1cccc(OCC(=O)O/N=C(\N)Cc2ccc(Cl)cc2)c1,inconclusive: -33.6%
11,COc1ccc(/C(C)=N/NC(=O)CNC(=O)CCc2ccccc2)c(OC)c1,inactive: 11.1%
12,CC1=NN(C(=O)c2ccc(Cn3cc([N+](=O)[O-])cn3)cc2)C(O)(C(F)(F)F)C1 (stereo not given),inactive: -8.03%
13,Cc1[nH]c2c(C)cccc2c1CCNS(=O)(=O)c1cccc([N+](=O)[O-])c1,inconclusive: -32.1%
14,O=C(NNC(=O)C(c1ccccc1)c1ccccc1)c1ccccc1O,inconclusive: -42.1%
15,Cc1ccc(S(=O)(=O)CCc2nnc(NC(=O)c3ccccn3)s2)cc1,inconclusive: -35.5%
16,O=c1[nH]c2c(s1)C(c1ccco1)C1C3CCC(C3)C1S2 (stereo not given),inconclusive: -31.6%
17,Cc1cccc(C(C)C)c1NC(=O)c1ccc(OCC2CCCO2)cc1 (stereo not given),inconclusive: -36.7%
18,O=[N+]([O-])c1cccc2ccc(/C=C/c3ccc(F)cc3)nc12,inconclusive: -38.5%
19,Cc1ccc(CCNC(=O)C2CC(c3ccccc3[N+](=O)[O-])=NO2)cc1 (stereo not given),inconclusive: -45.9%
20,CCc1cc(CNC(=O)c2ccc(OC3CCN(C(C)=O)CC3)c(OC)c2)on1,inactive: 29.9%
21,COc1ccc(C2=Nc3ccccc3N(C(=O)c3cnccn3)C2C(=O)NC2CCCC2)cc1 (stereo not given),inconclusive: -45.6%
22,Cc1cc(NC(=O)c2ccc3c(c2)C(=O)N(C)C3=O)no1,inconclusive: -32.1%

row,Structure (SMILES),"max response, negative = inhibition"
1,Cn1cc([N+](=O)[O-])c(C(=O)Nc2ccc(C(=O)N3CCCCC3)cc2)n1,inactive: -11.4%
2,C=CCN1C(=O)[C@]2(c3ccccc31)C1CCCC=C1C(C#N)=C(N)C2(C#N)C#N (stereo not given in full),inconclusive: -31.1%
3,COc1cc(NC(=O)NCC2CCN(Cc3ccccc3F)CC2)cc(OC)c1,inconclusive: -36.8%
4,CCOC(=O)[C@H]1[C@H]2COc3ccc(C)cc3[C@@H]2N2C(=O)c3cc(OC)c(OC)cc3NC(=O)[C@@]12C,active: -60.3%
5,CCOc1ccccc1NC(=O)c1cc(S(=O)(=O)N2CCOCC2)ccc1C,inconclusive: -33.5%
6,COc1ccc(Nc2cc(C)c3ccc(O)cc3n2)cc1,inconclusive: -40.8%
7,C(=C\c1ccccc1)/CN1CCN(C(c2cc3ccccc3o2)c2nnnn2Cc2ccccc2)CC1 (stereo not given),active: -104%
8,CC1CCCN(C(=O)c2cccc(S(=O)(=O)NCc3ccccc3)c2)C1 (stereo not given),active: -53.5%
9,O=C(c1cccs1)N1CCN(S(=O)(=O)c2cccc(Cl)c2Cl)CC1,inactive: -15.7%
10,CCCCNC(=O)c1cc2c(=O)n3cccc(C)c3nc2n(Cc2ccccc2)c1=N,inactive: -1.47%
11,COc1ccc(C2/C(=C(/O)c3ccccc3)C(=O)C(=O)N2c2ccccn2)c(OC)c1 (stereo not given),inactive: -15%
12,O=C(Oc1ccc(Cl)c2cccnc12)c1ccco1,active: -138%
13,CCOc1ccc(CCN2C(=O)C(=O)N([C@@H](Cc3ccccc3)CN3CCC[C@H]3CN3C(=O)C(=O)NC[C@@H]3Cc3ccccc3)C[C@@H]2Cc2ccccc2)cc1,inconclusive: -31.4%
14,COc1ccc(C(CNC(=O)c2cccc(S(=O)(=O)N3CCCCC3)c2)N2CCCC2)cc1 (stereo not given),active: -51.3%
15,COc1ccc(Cl)cc1Cn1c(C)c(C(=O)NCc2cccc(Cl)c2)sc1=O,inconclusive: -44.9%
16,CCCCn1nnnc1C(CCc1ccccc1)N1CCN(C/C=C/c2ccccc2)CC1 (stereo not given),active: -57.8%
17,Cc1ccccc1NC(=S)NCC1CCN(C(C)c2ccccc2)C1 (stereo not given),inconclusive: -32.6%
18,Cc1cc(N)c2cc(NC(=O)/C=C/c3ccccc3Cl)ccc2n1,active: -83.3%
19,Cc1ccc(S(=O)(=O)N2CCCC2)cc1[N+](=O)[O-],inactive: -24.1%
20,O=C(NCc1ccncc1)C12CC3CC(CC(C3)C1)C2,inactive: -8.98%
21,Nc1nnc(C(=O)c2ccccc2N)s1,inconclusive: -32.3%
22,Cc1cccc(-c2nnn3c2nc(NCCc2ccc(S(N)(=O)=O)cc2)c2ccccc23)c1,inactive: 21.3%

# Part of the list above, reformatted:
row	Structure (SMILES)	max response, negative = inhibition
14	COc1ccc(C(CNC(=O)c2cccc(S(=O)(=O)N3CCCCC3)c2)N2CCCC2)cc1 (stereo not given)	active: -51.3%
15	COc1ccc(Cl)cc1Cn1c(C)c(C(=O)NCc2cccc(Cl)c2)sc1=O	inconclusive: -44.9%
16	CCCCn1nnnc1C(CCc1ccccc1)N1CCN(C/C=C/c2ccccc2)CC1 (stereo not given)	active: -57.8%
17	Cc1ccccc1NC(=S)NCC1CCN(C(C)c2ccccc2)C1 (stereo not given)	inconclusive: -32.6%
18	Cc1cc(N)c2cc(NC(=O)/C=C/c3ccccc3Cl)ccc2n1	active: -83.3%
19	Cc1ccc(S(=O)(=O)N2CCCC2)cc1[N+](=O)[O-]	inactive: -24.1%

# Carrying on.

row,Structure (SMILES),"max response, negative = inhibition"
1,CC(=O)N1CCC2(CC1)NC(=O)N(c1ccccc1)N2,inactive: 3.29%
2,C[C@]12c3[nH]c4ccccc4c3CCN1C(=O)C(CC(=O)NCCCn1ccnc1)C[C@@H]2C(=O)N1CCOCC1 (stereo not given in full),inconclusive: -31.5%
3,CC1CCN(C(=O)c2ccc(COc3ccccc3Cl)o2)CC1,inconclusive: -36.2%
4,COc1ccccc1N1CCN(c2ccnc3cc(Cl)ccc23)CC1,inactive: 22.7%
5,O=C(C1=C[C@@H](c2ccc(Br)cc2)C[C@@H](OCc2ccc(CO)cc2)O1)N1CCN(Cc2ccccc2)CC1,inconclusive: -43.7%
6,Cc1ccc(NC(=S)N2CCN(S(=O)(=O)c3ccc(C)cc3)CC2)cc1,inconclusive: -42.7%
7,O=C(N/N=C/c1ccccn1)c1ccc(Br)cc1,inconclusive: -46%
8,Cc1cccc(NC(=O)c2ccc(Cl)c(S(=O)(=O)N3CCCC3)c2)n1,inactive: 8.53%
9,O=C(C1CCCN1S(=O)(=O)c1cccc2cccnc12)N1CCc2ccccc2C1 (stereo not given),inconclusive: -33.5%
10,CC1(C)CC(=O)C2=C(C1)OC1=C(C(=O)CC(C)(C)C1)C2c1cccc([N+](=O)[O-])c1,active: -78.3%
11,CC1CCCN(C(=O)COC(=O)/C=C/c2ccc(C(F)(F)F)cc2)C1 (stereo not given),inactive: 4.56%
12,O=S(=O)(NCc1c(Cl)cccc1Oc1ccccc1)c1ccccc1,inactive: -23.7%
13,NC(c1csc(Nc2ccc(C(=O)NCCO)cc2)n1)C1CCCCC1 (stereo not given),inconclusive: -36.3%
14,Cc1ccc(N2C(=O)c3ccccc3C2Nc2ccccc2)nc1 (stereo not given),inconclusive: -31.3%
15,Cn1c(=O)c2c(nc(CCC3CCCC3)n2C)n(C)c1=O,inactive: 5.17%
16,S=c1[nH]nc(-c2ccco2)n1Cc1ccccc1,active: -80.7%
17,CCCn1c2ccccc2c2nnc(SCC(=O)Nc3cc(C)on3)nc21,inconclusive: -38%
18,COc1ccc(-c2nc(CCNC(=O)c3cccs3)cs2)cc1,inconclusive: -30.5%
19,COc1cc(NC(=O)CCn2c(=S)[nH]c3ccccc3c2=O)cc(OC)c1OC,inconclusive: -31.7%
